For 42 sequences, binding signal results are on record in article PMC7819943, “Rice protein-binding microarrays: a tool to detect cis-acting elements near promoter regions in rice”.

This is one part of the list.

The target in the test is T1, OsSMF1 (Oryza sativa, UniProt Q6ZLB0 1-436).
T1 sequence: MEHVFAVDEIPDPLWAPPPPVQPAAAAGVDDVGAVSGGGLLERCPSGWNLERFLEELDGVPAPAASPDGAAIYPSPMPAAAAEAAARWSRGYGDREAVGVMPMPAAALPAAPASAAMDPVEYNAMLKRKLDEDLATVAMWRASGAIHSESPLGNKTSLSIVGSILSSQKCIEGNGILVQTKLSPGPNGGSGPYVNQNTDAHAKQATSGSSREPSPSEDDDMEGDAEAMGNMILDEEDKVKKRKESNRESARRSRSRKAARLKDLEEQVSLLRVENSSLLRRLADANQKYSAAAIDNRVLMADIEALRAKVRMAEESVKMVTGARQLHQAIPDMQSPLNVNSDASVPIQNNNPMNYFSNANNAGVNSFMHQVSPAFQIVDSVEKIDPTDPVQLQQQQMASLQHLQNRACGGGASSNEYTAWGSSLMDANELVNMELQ
Briefly: protein-binding microarray (RPBM); PBS, 2% BSA, 51.3 ng/ul salmon testes DNA, 50 uM zinc acetate, 200 nM TF, 25 C, 1 h; high values mean tight binding. Particulars: protein: recombinant; tags: N-terminal polyhistidine and DsRed monomer fusion (pET32a); chain copies: 2; label: CyDye5-dUTP incorporated in the synthesized complementary strand; 3' TTTTT single-stranded linker to array surface; dsDNA, one strand shown. The method, boiled down:
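Transcription factors were each fused at the N-terminus to a polyhistidine tag plus DsRed and expressed in E. coli BL21-CodonPlus before Ni–NTA purification. Binding to a double-stranded custom Agilent array was carried out with 200 nM protein at 25 °C for 1 h in PBS, 2% BSA, salmon testes DNA and 50 µM zinc acetate. The binding signal is per-feature fluorescence intensity, in arbitrary units, on an Axon 4000B scanner.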
Take “CGGCTAGGGACGGGGACGACGCCGGAGTGGGTGGGGAAGGCGGAGTCACCTAGTGCAG”: the binding signal was 3200 fluorescence intensity (a.u.).

Consider “TTCAAACTATATGTGTATTTACATACTTAAATCTTTTATTCGGAGTCACCTAGTGCAG”, for which the binding signal was 27100 fluorescence intensity (a.u.).

In the case of “TCTCGATGGATGACTCGATCGATCGTCATCGTTGGCTGCCCGGAGTCACCTAGTGCAG”, the binding signal was 6630 fluorescence intensity (a.u.).

As for “ATGGGCACGTTTACTTCCTCGGCCAAATAGGAATGGTGTGCGGAGTCACCTAGTGCAG”, the binding signal was 3160 fluorescence intensity (a.u.).

As for “CCTCTTGCCATTAAACAATCCGATTCCACGCAAGCAGCCCCGGAGTCACCTAGTGCAG”, the binding signal is 12500 fluorescence intensity (a.u.).

As to “CTATCTTTCTCAATCTATCCTATTCGATTCTCGTCATCGGCGGAGTCACCTAGTGCAG”, the binding signal was 4220 fluorescence intensity (a.u.).

As for “AGCCTCCAAATCAACCCAGCTGTTCCAACACACACATGAACGGAGTCACCTAGTGCAG”, the binding signal was 3270 fluorescence intensity (a.u.).

Take “TTATCCAAGATGCTTTGCACACGTCACATGAAACCCACTCCGGAGTCACCTAGTGCAG”: the binding signal was 12100 fluorescence intensity (a.u.).

With “CTGCATCGCACCACGCCCGCATGGTCCCACCACCCGACCGCGGAGTCACCTAGTGCAG”, the binding signal was 29700 fluorescence intensity (a.u.).

Turning to “CGTGCGGCGGATCGTGGTGGACGCGAGCGGCGGCGGCGACCGGAGTCACCTAGTGCAG”, the binding signal is 3440 fluorescence intensity (a.u.).

Regarding “AGCAAGGTTCCACACGCTGTCACTGCCGTGTGGGCCATCCCGGAGTCACCTAGTGCAG”, the binding signal was 4340 fluorescence intensity (a.u.).

In the case of “TGGGAGCGAGGGAGGACCTCTCCGGGAGTAGGAGTAGATGCGGAGTCACCTAGTGCAG”, the binding signal was 4120 fluorescence intensity (a.u.).

With “TGCTCACCTAACCCACACACGTGGCGCCAAAACCACAGGGCGGAGTCACCTAGTGCAG”, the binding signal was 9200 fluorescence intensity (a.u.).

In the case of “ATGCTGCCATGGTTCCAGCTCAATAGCTCATCACCATTGCCGGAGTCACCTAGTGCAG”, the binding signal is 3300 fluorescence intensity (a.u.).

Turning to “TCCTCCGCTAACTAGTCGTGCTCGGTGACGTCGCCGACACCGGAGTCACCTAGTGCAG”, the binding signal was 3940 fluorescence intensity (a.u.).

For the sequence “GCGGGCTGTACACGACGGTGATCGTCTCCTTCCTCACCGGCGGAGTCACCTAGTGCAG”, the binding signal was 3690 fluorescence intensity (a.u.).

Take “TTCTGTGGTGACGTGGACATATCTGGAACCTACGTTTTGCCGGAGTCACCTAGTGCAG”: the binding signal was 20900 fluorescence intensity (a.u.).

For the sequence “TATTAAATTGGCTATAGGTGATTTGGAGCTAATAGTTAGCCGGAGTCACCTAGTGCAG”, the binding signal is 3210 fluorescence intensity (a.u.).

Take “TCTGGGCTGAGGCCGCCGTGAGTCAAATCGACGGAAACCCCGGAGTCACCTAGTGCAG”: the binding signal was 4890 fluorescence intensity (a.u.).

In the case of “ACACACACCCGGAGAGCGAGCGAGCGCGTGCGCACCGCACCGGAGTCACCTAGTGCAG”, the binding signal is 3310 fluorescence intensity (a.u.).

With “AGTGTTTCATCTGACATTGATAAGCAGGAGCCAGAGCATGCGGAGTCACCTAGTGCAG”, the binding signal was 3910 fluorescence intensity (a.u.).

“GCCCCGCCATTGGCGCCTCCATTGCCACGCTGCCACCATCCGGAGTCACCTAGTGCAG”: the binding signal was 4990 fluorescence intensity (a.u.).

Consider “CTTTCCATTGGTTATGACTTACTGACTCACACTGCCAAACCGGAGTCACCTAGTGCAG”, for which the binding signal was 4600 fluorescence intensity (a.u.).

On to “CAAGGCCAATGCAGACACGCGTACGTTTCACATCACAAGCCGGAGTCACCTAGTGCAG”, for which the binding signal is 3730 fluorescence intensity (a.u.).

For “GGGGTGTTAGTTAATTGCATGTATCCGTACGTGACTTGTACGGAGTCACCTAGTGCAG”, the binding signal is 4360 fluorescence intensity (a.u.).

As for “CTGTTCTAGATAGATAAAGATAAAGATTAAATACAGGTACCGGAGTCACCTAGTGCAG”, the binding signal is 19500 fluorescence intensity (a.u.).

As for “GGAGGATTCTTGTCATGGCTCCAAATGTCTGGTAGCATGGCGGAGTCACCTAGTGCAG”, the binding signal is 4010 fluorescence intensity (a.u.).

For the sequence “TCCAACGATGTCACCCTAGCAAAAGGGGCCTGGTAGGGTTCGGAGTCACCTAGTGCAG”, the binding signal was 3480 fluorescence intensity (a.u.).

Regarding “TGTATCTGCTCAGCCCATCTCAGAAATATACTGGGGCCGACGGAGTCACCTAGTGCAG”, the binding signal was 22300 fluorescence intensity (a.u.).

Turning to “GAAGCTTCTGGGCCACGCCGCCACAAAAGCCGAAGCGGAACGGAGTCACCTAGTGCAG”, the binding signal is 3960 fluorescence intensity (a.u.).

Turning to “CGACGATGGAGGAGGTGGAGCGGCGACGGCGGTGGCGGAGCGGAGTCACCTAGTGCAG”, the binding signal is 8840 fluorescence intensity (a.u.).

As for “CCACCCAGCTCCACTCCCAGTTTTGGTGGAGCTGAAACTGCGGAGTCACCTAGTGCAG”, the binding signal was 3330 fluorescence intensity (a.u.).

As to “TTCCTATCGTTACAATTGCTAGTGGTAGGCCATGACACCTCGGAGTCACCTAGTGCAG”, the binding signal was 3770 fluorescence intensity (a.u.).

With “TAAACAACTTGAGGCACACCACATCACTACCAAGAGAGAGCGGAGTCACCTAGTGCAG”, the binding signal is 3510 fluorescence intensity (a.u.).

As to “CCACACACCATTGCCGCATCATCCACCACCGCCTCCTCAGCGGAGTCACCTAGTGCAG”, the binding signal is 5210 fluorescence intensity (a.u.).

For the sequence “GGCGGTGGATGGTGGTGCGGCGGCAGGAAGGGCGGGAGCGCGGAGTCACCTAGTGCAG”, the binding signal is 3470 fluorescence intensity (a.u.).

Take “TTATCTTGAAGATTCCATAGATAAGATTGCTGACGAGAGTCGGAGTCACCTAGTGCAG”: the binding signal was 3910 fluorescence intensity (a.u.).

On to “AGTCAGTCCACACTCCACACCAGTCTCCATCACAGTTTCCCGGAGTCACCTAGTGCAG”, for which the binding signal is 4040 fluorescence intensity (a.u.).

Consider “TCGCCGACGACTCACGCCGACACGTCGGAAGTCGTTGGCTCGGAGTCACCTAGTGCAG”, for which the binding signal is 6960 fluorescence intensity (a.u.).

For the sequence “ATCTCGTTCTAAAGGTCGGATATTTATGACGTGTATTAGGCGGAGTCACCTAGTGCAG”, the binding signal is 12200 fluorescence intensity (a.u.).

For the sequence “TCAATTGTGGCGTGAAGTACACATAACCCTTGTTGATGGGCGGAGTCACCTAGTGCAG”, the binding signal is 3540 fluorescence intensity (a.u.).

Consider “GAAGAAGAAGCAGCCATCCGAGTCGTCATCGGCGGCGGCGCGGAGTCACCTAGTGCAG”, for which the binding signal was 4950 fluorescence intensity (a.u.).
